Test results published in the supplement of paper PMC3334620.
In all, about 33,000 sequences were measured (“E-score (-0.5 to 0.5)”: median about -0.0034, highest 2% from about 0.25 on). The list shows a part of the results.

Target: T1, Yap3 (UniProt P38749)
T1 sequence: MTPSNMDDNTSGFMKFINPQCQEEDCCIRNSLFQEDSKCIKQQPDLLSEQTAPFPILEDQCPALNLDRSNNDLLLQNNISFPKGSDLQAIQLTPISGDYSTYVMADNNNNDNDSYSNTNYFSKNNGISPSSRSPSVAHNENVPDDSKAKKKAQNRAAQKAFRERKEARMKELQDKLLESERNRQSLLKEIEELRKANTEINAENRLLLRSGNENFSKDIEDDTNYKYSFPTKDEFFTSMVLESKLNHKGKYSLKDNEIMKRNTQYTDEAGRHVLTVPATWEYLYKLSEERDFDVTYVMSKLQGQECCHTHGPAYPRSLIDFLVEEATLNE
Experiment: PBM E-score (8-mer binding enrichment) (E-score (-0.5 to 0.5)); higher = stronger / more preferred TF binding
Details: protein concentration: 100 nM; construct: GST-full length
Method: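 Universal 'all 10-mer' protein binding microarrays (Agilent AMADID 015681) probed with GST-tagged S. cerevisiae TFs (full-length or DBD) made by in vitro transcription/translation (PURExpress), about 100-200 nM. Bound TF was detected with fluorescent anti-GST. Each ungapped 8-mer (which stands for itself and its reverse complement) is scored by the PBM enrichment score (E-score), a modified Wilcoxon-Mann-Whitney statistic from -0.5 to +0.5, computed with the Universal PBM Analysis Suite. Scale: above 0.35 generally sequence-specific binding.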

Sequence | PBM E-score
ACATAAAA | 0.236
CCCCGGAA | -0.244
CAACCTGG | -0.074
CTGCCGAC | -0.136
GATAGTAC | 0.0905
ATCTTTCG | 0.0456
AACAGTGG | -0.00155
CCTACCCC | -0.242
CTGATAAG | 0.0958
ACACTTTA | 0.203
CAATTAGC | 0.085
CCGTCATA | 0.0469
ACAGACAT | -0.0462
ACGTTTGC | -0.0339
ACCAATCA | 0.084
GTCTTTCA | -0.0208
AGGGCCCG | -0.216
TACCATGA | -0.0201
ATTCTCCA | 0.102
AGACGGGA | -0.171
ACTTGTCT | -0.0439
CCACGCCC | -0.274
CCCCCACA | -0.335
ACGTCGAT | 0.0972
ACTAACTC | -0.0293

Sequence | PBM E-score
TAGAACCA | 0.139
AAGGAAGC | -0.0757
GTAGCAGA | 0.00544
CCCCCAAC | -0.237
ACCCCGCG | -0.126
ATCGGACC | -0.0925
GACGCCAC | -0.143
ACGCTAAC | -0.0501
GCGACCGC | -0.0989
ATGCCGGC | -0.127
GTGCTGGA | -0.222
GAGGTTTA | 0.0474
GTAATAAC | 0.188
CAGGCACA | -0.29
CTAGATGA | -0.0244
AGAGGTGC | -0.146
CCTGTGGA | -0.317
GCAAGATA | 0.175
AACTGTCT | -0.0473
CCGTTTAG | 0.0753
ATGGTGGA | -0.062
CCTCAAAG | -0.132
AGCAGTGA | 0.0385
AGGGTCGA | -0.0328
GCTGGTCA | -0.0384

Sequence | PBM E-score
ATATGCAG | -0.0467
GCCCTTCC | -0.229
CAATTTGC | 0.0541
AAGCGTTA | 0.00957
ATTTAGAG | 0.178
ACCTCAGT | -0.0356
AGTGAGTC | -0.086
ATCTCTCA | 0.15
GCTGGGAA | -0.0385
TAAGTGTA | 0.0753
TTAGCCAA | 0.0775
TAACAGAA | 0.162
CGCACCCC | -0.263
ACTGCGGC | -0.153
CGTAACGA | 0.105
CGTTCGCA | -0.0138
CCGGGTAG | -0.0953
CGACCCCG | -0.385
CGCTTAAA | 0.102
CATTTTGA | 0.073
GAGGCTCA | -0.346
AAATATAG | 0.117
GCATACAC | 0.0279
AGACTACG | -0.313
CTCCCAGC | -0.119

6 entries from above, with tabs:
Sequence	PBM E-score
CTGCCGAC	-0.136
ATCTTTCG	0.0456
ACACTTTA	0.203
ATGCCGGC	-0.127
GCCCTTCC	-0.229
CGCTTAAA	0.102

2 records drawn at random from the list so far:
Sequence | PBM E-score
GCTGGGAA | -0.0385
CATTTTGA | 0.073

Continuation:

Sequence | PBM E-score
CCTTTATC | -0.104
ATTATTCA | 0.277
TAAGGATA | 0.0931
AATTCAGG | 0.136
CGCGTGGC | -0.0879
CTCACAAA | 0.0597
CACAACTA | 0.262
ATGGTTGA | 0.0884
ACGGCCAC | -0.0645
GTGTGAGA | 0.00821
AATCTACG | -0.153
AATCAATG | 0.2
GGTGCTAA | 0.0102
CAGTGTAC | 0.0413
TAACAATA | 0.248
CGGTTGCC | 0.00793
TATCTTCA | 0.0961
CGGAATAG | 0.0606
CACAAGCG | -0.0853
GCTCCTGA | -0.173
AATGTTAG | 0.0701
CGCAGGGC | -0.133
ACTGGAAT | 0.115
GAGAGAAC | -0.0326
TCAAAGAA | -0.0713

Sequence | PBM E-score
CAGATATG | 0.0697
ATTCTAGC | -0.00162
CATAATAC | 0.24
GTGGGTTA | -0.00831
GAAGGGTA | -0.0722
GCCATGCC | -0.0454
GCATTGGA | 0.0411
ATACTAAT | 0.143
GGACGAAA | 0.048
AAGCGCCG | -0.0406
CCAACAAC | 0.0446
GATCTTGA | 0.0634
ATGTTTGG | 0.0803
AAAGTTGA | -0.0882
CCTCTACA | -0.0182
GACCCCCC | -0.45
ATACTTCG | -0.0772
CTTCGGAA | 0.102
CACTTAAA | 0.0981
AGCATTTC | 0.131
AGGCTCAC | -0.154
AGAATAAT | 0.24
TCTTGGAA | 0.0839
AGGCCACC | -0.175
TAAAAGCA | 0.129

Sequence | PBM E-score
CTATCTCC | 0.106
AGCCGACA | -0.251
AATCTTCG | -0.0143
TGAACGCA | 0.0537
CGGTGATC | -0.16
CCTTCTTC | -0.168
ACGGCTGA | -0.0659
AATCCTCC | -0.0151
AACTGTCG | -0.0529
AGCGACAC | 0.0189
CGATAGGA | -0.0346
ACGGACGG | -0.0731
CACAGCTA | -0.0953
ATGTGGGC | 0.0796
CATTACGC | 0.114
CCCCAGCC | -0.212
CGTCGCCC | -0.187
AATCCCAC | 0.0193
GCTCCAGA | -0.179
ATGTATAA | 0.221
ATGGAAGA | -0.0919
CAAGATAC | -0.0123
CAGGTGGG | -0.0568
ATAAGCAT | 0.0575
TGGGCCAA | -0.166

Sequence | PBM E-score
GAAAACAA | 0.199
GGAGATTA | 0.0136
AAGCGATG | 0.045
TGTAACAA | 0.166
CAGGTGGA | -0.135
AATAGGGC | -0.126
ACTTTCAT | 0.0531
AACGCCCC | -0.235
ATCAGAAA | 0.0186
ATTCTCAG | -0.0714
CTAGTGAG | -0.0612
CTTAACTA | 0.16
ATCTTAAG | 0.066
CGTCTGAC | 0.066
ATCTTAAA | 0.18
ACGGCTCT | -0.0261
CAATAAGA | 0.16
ATCCCCGA | -0.12
ATACTTCA | 0.0363
CAAGCGGA | -0.0778
GAGCCCCC | -0.392
CCTTGCTA | 0.00045
GGAGGCGA | -0.0372
AATCCTTG | 0.0744
AAAGGCAT | 0.0964

Sequence | PBM E-score
CTGCGATC | -0.0633
AGCTGAGC | -0.223
AGTTCTCG | 0.0851
AATATCAC | 0.222
CAGCGACC | -0.215
AAGTCAAC | 0.0764
CCTCATTA | 0.187
ATTTGCTG | 0.0994
TCGCCAAA | -0.047
AAAGTAAA | 0.138
CTTTTCCC | -0.0693
AGAAAGTG | 0.0778
ATGAGTAA | 0.284
ATTGCATC | 0.0946
AATGGGAA | 0.0119
AACATGGC | 0.00524
GGGGCACC | -0.311
ATACAATG | 0.193
CGGTGAAA | 0.116
AAGAAGAT | 0.0393
GCTCCACA | -0.182
ACGAAAAG | 0.153
CAACTGAC | -0.00041
GAAAAAGC | 0.0808
TCTGCAAA | -0.107

Sequence | PBM E-score
AGCGCCGA | -0.16
AGAGCCTA | 0.0332
GTACATAC | 0.0502
ATCACAAC | 0.0374
CTCCTTTA | -0.126
ATGCTATA | 0.0819
AAGAAATA | 0.194
AACACGTT | -0.00312
GCAATAGA | -0.0281
AGCTATTA | 0.0802
CGCAACTA | 0.249
TCTGACAA | 0.025
CCGTTCCA | -0.0072
CAAGAACC | 0.182
TGCCGTAA | 0.0981
CGTTAACG | 0.151
GAGCCTAA | -0.0251
ATAATTCA | 0.282
GAAGGCGC | -0.233

As entered above.
ATCACAAC – PBM E-score: 0.0374
CTCCTTTA – PBM E-score: -0.126
